This is one part of the list. Single values are uncertain, as repeats are few or missing.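 Imaging used 1,536-well plates; nuclei positive for cleaved PARP by antibody were divided by total DNA-stained nuclei to yield the apoptosis fraction. Doses for screening kept most cells viable, and cell lines differ markedly in resting and induced cleaved-PARP levels.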
Tested on: COLO800
Test: cleaved PARP positive nuclei fraction relative to DMSO control; melanoma cells; higher = more apoptosis
Conditions: library dose: low library concentration; 72 h

**Q.** For C[C@]1(O)C[C@@H](c2nc(-c3ccc4ccc(-c5ccccc5)nc4c3)c3c(N)nccn32)C1 + CS(=O)(=O)c1ccc(C(=O)Nc2ccc(Cl)c(-c3ccccn3)c2)c(Cl)c1 [vismodegib] (first compound 0.4 µM, partner dose 1 µM), which “cleaved PARP positive nuclei fraction” value is on record?
**A.** 124%

**Q.** With C[C@@H](N)c1ccc(C(=O)Nc2ccnc3[nH]ccc23)cc1 + CCCS(=O)(=O)Nc1ccc(F)c(C(=O)c2c[nH]c3ncc(Cl)cc23)c1F [PLX4720] (first compound 0.4 µM, partner dose 0.08 µM) as the compound, how does the “cleaved PARP positive nuclei fraction” value read?
**A.** 93.5%

**Q.** CN(c1ncccc1CNc1nc(Nc2ccc3c(c2)CC(=O)N3)ncc1C(F)(F)F)S(C)(=O)=O + O=C(O)c1ccc2c(c1)nc(Nc1cccc(Cl)c1)c1ccncc12 [CX4945] (first compound 0.08 µM, partner dose 0.4 µM) was tested. Which “cleaved PARP positive nuclei fraction” value did it give?
**A.** 78.2%

**Q.** Which “cleaved PARP positive nuclei fraction” value does the source give for NC(=O)c1ccc(N(C(N)=O)c2c(F)cccc2F)nc1-c1ccc(F)cc1F + C=CCNC1=C2C[C@@H](C)C[C@H](OC)[C@H](O)[C@@H](C)/C=C(\C)[C@H](OC(N)=O)[C@@H](OC)/C=C\C=C(/C)C(=O)NC(=CC1=O)C2=O [Tanespimycin] (first compound 0.4 µM, partner dose 0.002 µM) here?
**A.** 83.7%

**Q.** Cn1cnc2c(F)c(Nc3ccc(Br)cc3Cl)c(C(=O)NOCCO)cc21 [selumetinib] + Nc1ccn([C@@H]2O[C@H](CO)[C@@H](O)C2(F)F)c(=O)n1 [gemcitabine] (first compound 0.015 µM, partner dose 0.0004 µM) was tested. Which “cleaved PARP positive nuclei fraction” value did it give?
**A.** 58.7%

Source: the supplement of paper PMC4604168 (melanoma cell lines)
